# According to PubChem BioAssay AID1259415 (National Center for Advancing Translational Sciences (NCATS), 2018):
# The whole screen tested about 410,000 compounds, of which about 18,000 (4.4%) were called active. Inconclusive means that the source gave no clear call. Such entries were picked first, then a sample of the others. Cut-off read from the data, not from the text of the source: active = activity change below about -60%; inconclusive = no clear call, values can overlap the other calls; inactive = above about -39%.
# Test: qHTS Assay for inhibitors of the human cytomegalovirus (HCMV)
# Conditions: HFF cells, HCMV-luciferase reporter, 72 h; at 57.5 µM; hits give low values
# How it was run: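 Luciferase read-out from HCMV-luciferase-infected HFFs (MOI 1 PFU/cell) 72 h post infection at 37C; compounds added after 16 h cell attachment; activity normalized between buffer-only basal and Salinomycin (10uM) inhibitor controls.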
# % is set by controls: 0 for no effect and ±100 for the full control effect.
row,Compound,"activity change, negative = inhibition"
1,Cc1ccc(S(=O)(=O)N2c3ccccc3CC2C)cc1 (centres undefined),inconclusive: -49.4%
2,CC(=O)Nc1ccc(NC(=O)CSc2nnc(-c3ccco3)n2Cc2ccco2)cc1,inconclusive: -56.6%
3,NC(=O)c1ccc(-n2nc(C(F)(F)F)c3c2CCCC3)cc1,inconclusive: -59.3%
4,COc1ccc(Cn2c(=S)[nH]c3cc(C(=O)NCCCN4CCOCC4)ccc3c2=O)cc1,active: -65.2%
5,Cc1ccc(-c2nnc(Nc3ccc(F)cc3)c3ccccc23)cc1S(=O)(=O)N1CCN(C)CC1,active: -102%
6,CCOC(=O)c1ccc(NC(=O)CSc2nnc(C)n2-c2ccccc2)cc1,inconclusive: -42.4%
7,O=C(NC12CC3CC(CC(C3)C1)C2)c1ccccc1,inconclusive: -41.1%
8,O=C(CSc1nc(O)c(Cc2ccccc2)c(=O)[nH]1)Nc1nc2c(s1)CCCC2,inconclusive: -50%
9,CCOC(=O)c1c(-c2ccc(-c3ccccc3)cc2)csc1NC(=O)CNCCN(C)C,active: -100%
10,O=C(c1ccccc1)C(Sc1ncn[nH]1)c1ccccc1 (centres undefined),inconclusive: -56.3%
11,CCCN(CCC)Cc1c(C(=O)N/N=C/c2ccsc2)nnn1-c1nonc1N,inactive: -12.8%
12,CCOC(=O)c1ccc(N2C(=O)c3[nH]nc(-c4ccc(OCC)cc4)c3C2c2cccs2)cc1 (centres undefined),active: -64.8%
13,COc1ccc(Cl)cc1NC(=O)C(C)N(C)Cc1cccc(Cl)c1Cl (centres undefined),inconclusive: -52.9%
14,COc1cc(CCC(=O)Nc2cccc(S(=O)(=O)N(C)C)c2)cc(OC)c1OC,inconclusive: -45.8%
15,COc1ccc2[nH]cc(CCNC(=O)c3cnn(-c4ccc(C)cc4)c3C3CCN(C(=O)OC(C)(C)C)CC3)c2c1,inconclusive: -52.9%
16,Cc1ccccc1-c1nc(CN2CCSCC2)c(C)o1,inconclusive: -45.3%
17,O=C(CSc1nncn1-c1cccnc1)N(c1ccccc1)c1ccccc1,inconclusive: -45.3%
18,COC(=O)c1cc2oc3ccccc3c2n1Cc1nc(-c2cccc(C)c2)oc1C,inactive: 14.8%
19,COc1ccc(N2CCN(C(=O)c3ccc(CNS(=O)(=O)c4cc(C)ccc4C)cc3)CC2)cc1,inconclusive: -52.1%
20,Nc1nc(SCc2ccccc2Cl)ns1,inactive: 35.5%
21,O=C(CSCc1ccc(Cl)cc1)Nc1ccccc1C(=O)N1CCOCC1,inconclusive: -42.4%
22,COc1ccc(CCC(C)NC2CCCCCCC2)cc1 (centres undefined),inconclusive: -40.7%
23,COCCNC(=O)C1(S(=O)(=O)c2ccccc2)CC=CC1,inactive: 35.9%
24,Cc1c(C(=O)N2CCC(C)CC2)c(S(=O)(=O)Nc2cccc(C(F)(F)F)c2)c(C)n1C,inconclusive: -57.2%
25,COc1ccc(OC)c(CCNC(=O)c2cnn(-c3ccc(C)cc3C)c2C2CCN(C(=O)OC(C)(C)C)CC2)c1,inconclusive: -42.4%
26,Cc1ccc(NC(=O)CN(C)CC(=O)Nc2cccc(F)c2)cc1[N+](=O)[O-],inconclusive: -42.1%
27,CC(=O)Nc1ccc(S(=O)(=O)Nc2nccc(/C=C/c3ccc(Cl)cc3)n2)cc1,active: -73.1%

row,Compound,"activity change, negative = inhibition"
1,CC1Cc2ccccc2N1S(=O)(=O)c1cccs1 (centres undefined),inconclusive: -53%
2,O=C(CCCOc1ccc(Cl)cc1Cl)N/N=C/c1ccccc1O,active: -104%
3,CC1CCC(C(C)C)C(OCC(O)CN2CCCC(C)C2)C1 (centres undefined),inconclusive: -44.7%
4,O=C(c1ccco1)N1CCN(Cc2nc3ccccc3c(=O)n2-c2ccc(F)cc2)CC1,inactive: -21.9%
5,COc1ccc(C(=O)NCc2ccc3c(c2)CCN3C(=O)c2ccc(C)cc2)cc1,inconclusive: -57.8%
6,CC(C)(C)n1ncc2c(=O)n(Cc3ccccc3Br)cnc21,inconclusive: -45.5%
7,O=C(O)CCCN1C(=O)/C(=C\c2ccc(-c3nc4ccccc4s3)o2)SC1=S,inconclusive: -54.1%
8,COC(=O)N/N=C(\C)c1ccc(OC(F)F)cc1,inactive: 45%
9,CC(C)c1ccccc1NC(=O)COc1ccc(C(=O)NCCc2ccccc2)cc1,inconclusive: -53.3%
10,CN(C)CC(C)(C)CNC(=S)NCc1ccc2c(c1)OCO2,inconclusive: -41.1%
11,CCOC(=O)c1cc(-c2ccccc2)sc1NC(=S)Nc1cccc(C)n1,inconclusive: -50.2%
12,O=C(N1CCN(CCO)CC1)N1c2ccccc2CCc2ccccc21,inconclusive: -44.4%
13,COc1cccc(/C=N/n2c(N)nc3ccccc32)c1OC,inactive: 85.5%
14,N#Cc1c(Nc2ccccc2C(F)(F)F)s[nH]c1=O,inconclusive: -55.9%
15,O=C(CSc1nnc(COc2ccc(Cl)cc2)o1)N(c1ccccc1)C1CCS(=O)(=O)C1 (centres undefined),inconclusive: -53.3%
16,CC(CCc1ccccc1)NC(=O)C1CCN(S(=O)(=O)N2CCCCC2)CC1 (centres undefined),inactive: -15.1%
17,O=[N+]([O-])c1ccc(NC(=S)N2CCc3ccccc32)cc1,inconclusive: -51.9%
18,O=C(O)CCCc1c(-[n+]2ccccc2)[nH]c2ccccc12,inconclusive: -58.8%
19,COc1ccc(-c2csc3ncnc(N4CCN(S(=O)(=O)c5ccc(C(C)=O)cc5)CC4)c23)cc1,inactive: -21.2%
20,CCc1ccc(CNC(=O)c2cc3c(=O)n(Cc4cccs4)ccc3nc2C)cc1,inactive: -16.1%
21,CC(C)(Oc1ccc(Cl)cc1)C(=O)NCCN1C(=O)S/C(=C/c2cccnc2)C1=O,inconclusive: -55.8%
22,COc1ccccc1C(=O)NC(=O)CSc1nnc(C)s1,inactive: -4.02%
23,O=C1C(n2ccc3ccccc32)c2cc(Cl)ccc2N1Cc1ccc(C(F)(F)F)cc1 (centres undefined),inconclusive: -43.2%
24,CN(CC(=O)Nc1ccc(N2CCOCC2)cc1)C(=O)COc1ccccc1F,inconclusive: -42.4%
25,COc1ccc(CN2CCNC(=O)C2CC(=O)N2CCCN(C(C)=O)CC2)c(OC)c1 (centres undefined),inactive: -32.8%
26,CCCC(=O)C1C(=O)CC(C)(C)C(c2cc(C)no2)C1=O (centres undefined),inactive: 19.6%
27,CCOC(=O)CC(NS(=O)(=O)c1ccc(OC)c(C)c1)c1cccc([N+](=O)[O-])c1 (centres undefined),inconclusive: -45.1%

# Structural class: those above containing a furan ring, fused or not
row,Compound,"activity change, negative = inhibition"
2,CC(=O)Nc1ccc(NC(=O)CSc2nnc(-c3ccco3)n2Cc2ccco2)cc1,inconclusive: -56.6%
18,COC(=O)c1cc2oc3ccccc3c2n1Cc1nc(-c2cccc(C)c2)oc1C,inactive: 14.8%
4,O=C(c1ccco1)N1CCN(Cc2nc3ccccc3c(=O)n2-c2ccc(F)cc2)CC1,inactive: -21.9%
7,O=C(O)CCCN1C(=O)/C(=C\c2ccc(-c3nc4ccccc4s3)o2)SC1=S,inconclusive: -54.1%
